Data from patent US12503486 (dated 2025).

Assays:
[1] = general procedure: Fmoc solid-phase peptide synthesis; AM, MBHA or CTC resin carrying the Formula (1) linker compound; PyBop/DIEA (on-resin cyclisation of PMX-53); conditions: for isolated mass / crude yield / isolated yield / crude mass / final HPLC purity / crude HPLC purity: whole synthesis; for isolated mass: acetate; for crude mass: trifluoroacetate; for final HPLC purity: EP8.0, scale of the general procedure 1-5 mmol
[2] = general procedure: Fmoc solid-phase peptide synthesis; Formula (viii)-CTC resin; PyBop/DIEA (on-resin cyclisation of PMX-53); conditions: whole synthesis, scale 5 mmol, trifluoroacetate
[3] = general procedure: Fmoc solid-phase peptide synthesis; AM resin; PyBop/DIEA (on-resin cyclisation of PMX-53); conditions: whole synthesis, scale 1 mmol, trifluoroacetate
[4] = on 5 mmol resin NH2, scale of the general procedure 1-5 mmol, acetate (PMX-53: trifluoroacetate), run 1
[5] = on 5 mmol resin NH2, scale of the general procedure 1-5 mmol, acetate (PMX-53: trifluoroacetate), run 2
[6] = acetate (PMX-53: trifluoroacetate)
[7] = on 5 mmol resin N-Fmoc, scale of the general procedure 1-5 mmol, acetate (PMX-53: trifluoroacetate)
[8] = on 1 mmol resin NH2, scale of the general procedure 1-5 mmol, acetate (PMX-53: trifluoroacetate)

“Glp-His(Trt)-Trp(Boc)-Ser(t-Bu)-Tyr(t-Bu)-DLeu-Leu-Arg(pbf)-Pro-Formula (1)-resin” showed a step yield ([1]; purification step, acetate (PMX-53: trifluoroacetate)) of 65%, an isolated mass ([1]; run 1) of 2.46 g and an isolated mass ([1]; run 2) of 2.02 g. It also gave an isolated mass ([1]; run 3) of 2.35 g, a crude yield ([1]; on 5 mmol resin NH2, purity-corrected, scale 5 mmol, acetate (PMX-53: trifluoroacetate)) of 92.6% and a crude yield [1, 4] of 85.6%. For the same substance, the isolated yield [1, 4] was 40.6%, the crude yield [1, 5] was 90.5% and the isolated yield [1, 5] was 33.4%. For the same substance, the isolated yield ([1]; on 5 mmol resin NH2, scale of the general procedure 1-5 mmol, acetate (PMX-53: trifluoroacetate), run 3) was 38.8%, the crude mass ([1]; scale 5 mmol, run 1) was 5.87 g and the crude mass ([1]; scale 5 mmol, run 2) was 5.46 g. For the same substance, the crude mass ([1]; scale 5 mmol, run 3) was 5.71 g.

With Alarelin acetate the “final HPLC purity” value [1, 6] was 99.76%, the “crude HPLC purity” value ([1]; EP (8.0) method, scale of the general procedure 1-5 mmol, acetate (PMX-53: trifluoroacetate)) was 96.14% and the isolated mass [1] was 4.16 g. It also gave a crude yield [1, 7] of 88.84%, an isolated yield [1, 7] of 35.5% and a crude mass [2] of 10.78 g.

With Liraglutide acetate the “final HPLC purity” value [1, 6] was 99.21%, the isolated mass [1] was 0.68 g and the “crude HPLC purity” value ([1]; assay according to EP8.0 (European Pharmacopoeia 8.0), scale of the general procedure 1-5 mmol, acetate (PMX-53: trifluoroacetate)) was 67.45%. It also gave a crude yield [1, 8] of 66.9%, an isolated yield [1, 8] of 18.1% and a crude mass [3] of 3.72 g.
